From PMC8274477
These are yes or no findings as the source states them, for the method shown. Some binding calls cover weakened binding; strength is not graded here.

Chains of the proteins cited; added tags and fusions are not shown. Residues count along the entry.
UniProt P46937: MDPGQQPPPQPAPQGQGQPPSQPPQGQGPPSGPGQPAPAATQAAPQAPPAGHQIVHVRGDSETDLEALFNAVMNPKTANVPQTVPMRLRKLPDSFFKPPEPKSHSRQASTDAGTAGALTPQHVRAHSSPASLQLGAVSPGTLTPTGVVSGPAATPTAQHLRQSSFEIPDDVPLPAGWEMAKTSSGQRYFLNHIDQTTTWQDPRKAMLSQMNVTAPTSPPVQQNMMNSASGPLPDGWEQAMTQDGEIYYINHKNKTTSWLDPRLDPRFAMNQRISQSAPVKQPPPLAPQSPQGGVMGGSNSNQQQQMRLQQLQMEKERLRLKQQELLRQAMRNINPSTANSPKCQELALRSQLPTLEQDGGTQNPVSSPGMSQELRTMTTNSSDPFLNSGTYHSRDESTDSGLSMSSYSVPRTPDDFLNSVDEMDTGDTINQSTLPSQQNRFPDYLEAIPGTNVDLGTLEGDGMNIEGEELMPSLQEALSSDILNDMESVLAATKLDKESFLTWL
UniProt P13051: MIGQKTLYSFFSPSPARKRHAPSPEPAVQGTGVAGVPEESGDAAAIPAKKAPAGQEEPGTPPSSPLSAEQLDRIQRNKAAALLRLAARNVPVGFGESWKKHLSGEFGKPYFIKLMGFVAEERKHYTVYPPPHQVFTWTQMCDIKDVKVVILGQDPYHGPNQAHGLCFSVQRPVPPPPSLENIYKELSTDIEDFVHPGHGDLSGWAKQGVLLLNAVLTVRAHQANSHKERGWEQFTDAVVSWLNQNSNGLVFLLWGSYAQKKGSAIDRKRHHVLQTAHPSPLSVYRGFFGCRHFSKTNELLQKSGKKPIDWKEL
UniProt Q9H1K1, residues 35-167: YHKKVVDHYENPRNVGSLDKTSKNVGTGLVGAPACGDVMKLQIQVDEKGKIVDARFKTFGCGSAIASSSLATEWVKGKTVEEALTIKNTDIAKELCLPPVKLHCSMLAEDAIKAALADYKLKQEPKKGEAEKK

Tests used:
Assay in all cases: peptide or protein array; HuProt human proteome microarray; 5 ug/5 ml biotin-labelled LUBAC or OTULIN in solution, 1 h at room temperature; Cy5-streptavidin, scanned at 635 nm; BSA as negative control; hits: Z-score >= 3 and I_(Mean_Ratio) >= 1.4; both purified
[1] = molecular target: YAP1 (human) (UniProt P46937)
[2] = molecular target: T1, SKIL (human) (UniProt P12757)
T1 sequence: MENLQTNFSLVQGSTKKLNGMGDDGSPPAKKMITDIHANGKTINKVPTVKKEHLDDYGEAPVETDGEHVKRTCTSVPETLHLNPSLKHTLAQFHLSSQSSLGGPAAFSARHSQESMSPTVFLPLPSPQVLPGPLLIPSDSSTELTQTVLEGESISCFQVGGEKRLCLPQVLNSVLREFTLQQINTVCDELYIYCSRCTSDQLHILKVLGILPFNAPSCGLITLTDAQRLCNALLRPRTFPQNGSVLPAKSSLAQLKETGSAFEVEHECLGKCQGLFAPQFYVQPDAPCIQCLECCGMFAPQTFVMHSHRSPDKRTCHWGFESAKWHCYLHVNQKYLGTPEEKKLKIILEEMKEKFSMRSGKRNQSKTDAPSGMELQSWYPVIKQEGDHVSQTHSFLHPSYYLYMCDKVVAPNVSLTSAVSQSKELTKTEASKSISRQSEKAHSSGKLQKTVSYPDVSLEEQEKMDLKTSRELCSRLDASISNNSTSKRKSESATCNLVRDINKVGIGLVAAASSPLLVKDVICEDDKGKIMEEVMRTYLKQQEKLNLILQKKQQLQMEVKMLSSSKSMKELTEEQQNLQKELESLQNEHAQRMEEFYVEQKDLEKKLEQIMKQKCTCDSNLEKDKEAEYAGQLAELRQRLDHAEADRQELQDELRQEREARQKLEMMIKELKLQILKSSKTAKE

[3] = molecular target: T2, ANGPTL2 (human) (UniProt Q9UKU9)
T2 sequence: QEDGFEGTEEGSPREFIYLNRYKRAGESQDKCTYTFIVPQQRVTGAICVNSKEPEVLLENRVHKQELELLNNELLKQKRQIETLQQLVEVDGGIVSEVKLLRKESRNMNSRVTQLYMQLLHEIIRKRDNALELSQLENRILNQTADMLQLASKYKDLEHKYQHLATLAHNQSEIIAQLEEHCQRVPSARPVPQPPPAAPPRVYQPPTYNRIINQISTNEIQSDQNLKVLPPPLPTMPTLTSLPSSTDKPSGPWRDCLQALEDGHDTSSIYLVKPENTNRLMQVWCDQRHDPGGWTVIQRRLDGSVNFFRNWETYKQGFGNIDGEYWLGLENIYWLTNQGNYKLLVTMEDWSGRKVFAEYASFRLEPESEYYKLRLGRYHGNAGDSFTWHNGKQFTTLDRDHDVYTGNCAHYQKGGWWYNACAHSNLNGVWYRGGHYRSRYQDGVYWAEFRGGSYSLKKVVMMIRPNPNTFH

[4] = molecular target: UNG (human) (UniProt P13051)
[5] = molecular target: T3, STARD7 (human) (UniProt Q9NQZ5)
T3 sequence: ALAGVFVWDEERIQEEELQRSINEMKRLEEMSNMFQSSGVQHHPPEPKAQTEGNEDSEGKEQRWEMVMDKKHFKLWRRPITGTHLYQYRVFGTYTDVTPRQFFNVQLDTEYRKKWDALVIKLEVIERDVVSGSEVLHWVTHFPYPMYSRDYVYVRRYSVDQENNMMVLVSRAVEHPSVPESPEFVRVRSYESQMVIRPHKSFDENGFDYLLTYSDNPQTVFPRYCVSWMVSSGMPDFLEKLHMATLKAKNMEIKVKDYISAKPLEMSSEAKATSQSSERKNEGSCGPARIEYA

[6] = molecular target: ISCU (human) (UniProt Q9H1K1)

binding [1]	binding [2]	binding [3]	binding [4]	binding [5]	binding [6]	Substance
binds	binds	binds	binds	binds	binds	OTULIN (OTU deubiquitinase with linear linkage specificity, FAM105B), His-tagged, biotin-labelled (from UniProt Q96BN8 1-352) (enzyme)
binds	binds	binds	binds	binds	binds	linear ubiquitin chain assembly complex (LUBAC), purified as HIS-tagged HOIP with the subunit HOIL-1, biotin-labelled (from UniProt Q96EP0 1-1072; Q9BYM8 1-510)
